Values from PubChem BioAssay AID743454 (Peter MacCallum Cancer Centre, 2014).

Test: 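Genes whose loss kills vorinostat-resistant colon cancer cells under vorinostat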 (primary screen)
Cells: human HCT116-VR colon cancer cells, selected for vorinostat resistance
Reagents: siRNA pool against human genes, 40 nM siRNA pool
Time to read-out: vorinostat for 24 h, read-out about 72 h after transfection
Challenge: vorinostat at 2.5 µM final
Measured: 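Cell viability by CellTiter-Fluor and caspase 3/7 activity by luminescence, each scaled to mock wells per plate, duplicates averaged, then robust z-scored over all plates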
Reading the numbers: viability robust z-score: higher = more viable cells than screen typical; caspase robust z-score: higher = more caspase 3/7 activity than screen typical
Call rule: 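Hits are knock-downs in viability class RV1/RV2 or caspase class CA1/CA2, excluding ones that killed cells in the no-drug cell-count arm; hits then retested with single siRNAs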
Here is an unselected part of about 18,000 reagents tested. 450 of them (2.5%) were called active. 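Single biological run; no consistent viability z cut-off exists, so the class columns, not z-scores, define the calls.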 Entries without a mark were called inactive. No sequences are given here.

| Gene | viability hit class | caspase hit class | viability robust z-score | caspase robust z-score |
| --- | --- | --- | --- | --- |
| GKN1 | no change | no change | 0.87 | 0.76 |
| SPMIP4 | no change | no change | -3.4 | -1.02 |
| ZBTB18 | no change | no change | 0.5 | 1.09 |
| TWF2 | no change | no change | 0.83 | 0.46 |
| MMAB | no change | no change | -0.01 | -1 |
| ANKRD40 | no change | no change | -0.08 | 0.18 |
| DEFA3 | no change | no change | 0.64 | 0.53 |
| PAFAH1B2 | no change | no change | 0.36 | 1.62 |
| LGALS2 | no change | no change | -0.16 | -0.83 |
| PRIM2 | no change | no change | 1.18 | -0.24 |
| LPO | no change | no change | 0.48 | -1.14 |
| DNPH1 | no change | no change | 1.34 | -0.7 |
| TSNAX | no change | no change | -0.48 | -1.13 |
| OR51I1 | no change | no change | 0.22 | 0.38 |
| LGALSL | no change | no change | -0.28 | 0.34 |
| CATSPER1 | no change | no change | 0.43 | 1.82 |
| ABHD17C | no change | no change | -0.02 | -0.24 |
| GNPAT | no change | no change | 0.49 | 4.88 |
| CCDC144NL | no change | no change | 1.82 | 2.34 |
| PCDHAC1 | no change | no change | -0.29 | -0.68 |
| CAPN3 | no change | no change | -0.78 | -0.66 |
| CHD1 | no change | no change | 0.83 | -1 |
| GPC1 | no change | no change | -0.64 | 0.57 |
| INTS9 | no change | no change | -0.77 | 2.17 |
| ISLR2 | no change | no change | 1.16 | 0.51 |
| SLC10A2 | no change | no change | -0.28 | 1.03 |
| ZMYND19 | no change | no change | 1.98 | -0.52 |
| VPS33A | no change | no change | 1.14 | -0.42 |
| AGO3 | no change | no change | 1.86 | 0.06 |
| FBXL12 | no change | no change | -0.02 | 0.55 |
| NSUN5P1 | no change | no change | -0.29 | 1.35 |
| CSRP2 | no change | no change | -2.85 | 0.21 |
| KNCN | no change (active) | CA2 (caspase activation) | -0.88 | 5.71 |
| CD28 | no change | no change | 0.72 | -0.62 |
| ARMCX5 | no change | no change | -0.48 | -0.99 |
| UBE2O | no change | no change | -0.88 | 1.5 |
| KIF21B | no change | no change | 1 | -0.81 |
| CDH3 | no change | no change | -0.6 | -0.6 |
| OAZ3 | no change | no change | -1.8 | 1.88 |
| GSTA4 | no change | no change | -0.86 | 0.28 |
| ZBTB20 | no change | no change | -1.73 | 3.12 |
| AIF1 | no change | no change | 0.38 | 0.82 |
| CHKB | no change | no change | 0.46 | 0.01 |
| CENPT | no change | no change | 1.16 | 1.49 |
| DOK5 | no change | no change | 0.23 | 2.87 |
| ZBTB7C | no change | no change | -0.08 | -0.52 |
| ASAP3 | no change | no change | -1.85 | 0.6 |
| UBXN4 | no change | no change | 0.3 | -0.24 |
| CDC123 | no change | no change | -0.5 | 0.04 |
| QTRT1 | RV2 (reduced viability) (active) | no change | -3.39 | 2.68 |
| SLC9B1 | no change | no change | -0.08 | -0.42 |
| IL9R | no change | no change | -0.99 | 2.05 |
| OR3A4P | no change | no change | 0.29 | 2.29 |
| CENPM | no change | no change | -0.37 | 0.28 |
| NUCLEOLIN | no change | no change | -0.85 | 0.97 |
| HDAC5 | no change | no change | -0.38 | 4.77 |
| KCNT2 | no change | no change | 0.4 | -0.98 |
